Laboratory results: PubChem BioAssay AID1347075 (National Center for Advancing Translational Sciences (NCATS), 2019)
The whole screen tested about 400,000 compounds, of which about 5,500 (1.4%) were called active. This list was built around the results that the source calls inconclusive (neither active nor inactive); the mix of calls is not that of the screen. The call rests on the fitted dose curve; in most records, active means well fitted cell-killing curve with a large enough effect; inconclusive means small, poorly fitted or top-dose-only effect, or effect the other way; inactive means flat fitted curve, though single readings scatter. Potencies beside an inconclusive call are fits to weak or partial responses and may not hold up.

assay: qHTS assay for MDR1-selective chemotherapeutics: Primary screen using the parental adenocarcinoma cell KB-3-1; conditions: KB-3-1 viability, CellTiter-Glo ATP luminescence, 72 h; activity change, negative = cytotoxic: at 46.1 µM (top of the series); further: nearly all actives have a fitted effect of over 60% in size
Outline: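 KB-3-1 cells, DMEM (no phenol red) + 10% FBS; compound by pin transfer, 72 h, 37 °C. Readout: CellTiter-Glo luminescence after 10 min. Data normalized, curve-fitted.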
On the % scale 0 is the no-effect control and ±100 the full control effect; potency means the concentration at half of the fitted maximal effect.

Which Potency does the source give for `CN(Cc1ccccc1)C(=O)CC(c1ccccc1)c1cc(Cl)ccc1O` (centres undefined) here?
Its Potency is inconclusive: 25.9 µM [cytotoxic, single point].

With `CCC1=Nc2cc(C(=O)NCCCOC(C)C)ccc2Sc2ccccc21` as the compound, how does the Potency read?
Its Potency is inconclusive: 18.4 µM [cytotoxic, single point].

For `COC1CC(NC(C)=O)C(OC(=O)c2ccccc2)C(CBr)O1` (centres undefined), which Potency is on record?
Its Potency is “inactive”.

With `COc1ccc(-c2cc(OC(=O)c3cccc(C)c3)c3c(C)oc(C)c3c(=O)c2)cc1` as the compound, how does the Potency read?
The Potency was “inactive”.

With `O=C(NCC(=O)N1CCN(S(=O)(=O)c2ccc3c(c2)OCCO3)CC1)c1ccccc1Cl` as the compound, how does the Potency read?
Its Potency is “inactive”.

For `Cc1ccc(-c2noc(CCC(=O)N(C)c3ccccc3C)n2)cc1`, which Potency is on record?
Its Potency is inconclusive: 23.1 µM [cytotoxic, single point].

Which activity change, negative = cytotoxic does the source give for `O=C(NCCN1CCC(n2c(=O)[nH]c3ccccc32)CC1)c1ccncc1` here?
The activity change, negative = cytotoxic was inconclusive: -21.6%.

Which Potency does the source give for `CN(Cc1ccccc1)CC(O)COc1ccc(CNCCCOc2cccnc2)cc1` (centres undefined) here?
Its Potency is inconclusive: 1.3 µM [cytotoxic, full curve].

With `NS(=O)(=O)c1ccc(NC(=S)NNC(=O)CCC(=O)Nc2ccccc2Cl)cc1` as the compound, how does the Potency read?
Its Potency is “inactive”.

For `CN(C)c1cc[n+](CC(=O)c2ccc(Br)cc2)cc1`, which Potency is on record?
Its Potency is “inactive”.

With `CC(C)(C)n1nnnc1C(c1cc2ccccc2o1)N(Cc1ccccc1)Cc1ccccc1` (centres undefined) as the compound, how does the Potency read?
The Potency was inconclusive: 29.1 µM [cytotoxic, single point].

With `CN(c1ccccc1)S(=O)(=O)c1ccc(C(=O)Nc2ncccc2O)cc1` as the compound, how does the Potency read?
The Potency was “inactive”.

With `Cc1ccc(S(=O)(=O)N/N=C/c2cc(Br)ccc2O)cc1` as the compound, how does the Potency read?
Its Potency is “inactive”.

Which Potency does the source give for `CN(C)c1ccc(/C=C/c2ccnc3ccc(N)cc23)cc1` here?
The Potency was inconclusive: 29.1 µM [cytotoxic, single point].

Which Potency does the source give for `Cc1ccc(CNC(=O)c2cccc3c2C(=O)c2ccc(N4CCOCC4)cc2S3(=O)=O)cc1` here?
The Potency was inconclusive: 29.1 µM [rising, partial curve, poor fit].

With `CCOc1ccc(C(=O)Nc2nnc(NC(=S)Nc3ccccc3)s2)cc1` as the compound, how does the Potency read?
The Potency was inconclusive: 3.66 µM [rising, partial curve].

With `CC(CC(=O)Nc1ccc2c(c1)c(=O)n(C)n2-c1cccs1)c1ccccc1` (centres undefined) as the compound, how does the Potency read?
The Potency was inconclusive: 29.1 µM [cytotoxic, single point].

With `COc1ccccc1N1CC(C(=O)OCC(=O)c2c(N)n(C)c(=O)n(C)c2=O)CC1=O` (centres undefined) as the compound, how does the activity change, negative = cytotoxic read?
Its activity change, negative = cytotoxic is inconclusive: 1.68%.

With `CN1C(=O)Cc2cc(S(=O)(=O)CCC(=O)N3CCN(c4cccc(Cl)c4)CC3)ccc21` as the compound, how does the Potency read?
Its Potency is “inactive”.

For `COc1cccc(Nc2n[nH]c(=S)s2)c1`, which Potency is on record?
Its Potency is “inactive”.

With `O=C(NCc1ccccc1Cl)C1CCCN(c2ncnc3c2nc2n3CCCCC2)C1` (centres undefined) as the compound, how does the Potency read?
The Potency was “inactive”.

Which Potency does the source give for `CCc1ccc(Oc2coc3cc(OCC(=O)Nc4cc(C)ccc4C)ccc3c2=O)cc1` here?
Its Potency is inconclusive: 23.1 µM [cytotoxic, single point].

With `Cc1cccc(C(=O)O[C@@H]2[C@H](Cc3ccccc3)NS(=O)(=O)[C@H]3C[C@@H]4C=C[C@]23O4)c1` as the compound, how does the Potency read?
Its Potency is inconclusive: 2.91 µM [rising, partial curve].

Which Potency does the source give for `C[C@@H]1CN([C@@H](C)CO)C(=O)Cc2cc(NC(=O)Nc3ccc(F)cc3)ccc2O[C@@H]1CN(C)Cc1ccc(Cl)c(Cl)c1` here?
Its Potency is inconclusive: 18.4 µM [cytotoxic, single point].

Which Potency does the source give for `Cc1ccccc1N=Cc1ccc[nH]1` here?
Its Potency is inconclusive: 7.31 µM [rising, partial curve, poor fit].

With `COc1ccccc1CN1CC(C(=O)N(C)Cc2ccncc2C)CCC1=O` (centres undefined) as the compound, how does the Potency read?
Its Potency is inconclusive: 20.6 µM [rising, single point].

With `COc1cc(C(=O)NCC(=O)NNC(=O)C2COc3ccccc3O2)cc(OC)c1OC` (centres undefined) as the compound, how does the Potency read?
The Potency was inconclusive: 11.6 µM [rising, partial curve, poor fit].

With `CCC(C)NC(=O)CN(c1ccc(Cl)c(Cl)c1)S(C)(=O)=O` (centres undefined) as the compound, how does the Potency read?
Its Potency is inconclusive: 0.651 µM [cytotoxic, full curve].

Which Potency does the source give for `O=C(NCc1cccs1)C1CC(=O)N(Cc2ccccc2)C1` (centres undefined) here?
The Potency was inconclusive: 3.66 µM [rising, full curve].

For `CC(Oc1ccccc1)C(=O)N=Nc1c(O)[nH]c2ccc([N+](=O)[O-])cc12` (centres undefined), which Potency is on record?
Its Potency is “inactive”.

For `CCN(CC)c1ccc(/C=C2/SC(=O)N(C(C)C)C2=O)o1`, which Potency is on record?
The Potency was inconclusive: 11.6 µM [cytotoxic, partial curve, poor fit].

With `NS(=O)(=O)c1ccc(CCNC(=O)c2ccc(Cl)c(S(=O)(=O)N3CCCCCC3)c2)cc1` as the compound, how does the Potency read?
The Potency was inconclusive: 29.1 µM [cytotoxic, single point].

With `Cc1onc(-c2ccccc2Cl)c1C(=O)Nc1nc2c(s1)CCCC2` as the compound, how does the Potency read?
Its Potency is inconclusive: 35.5 µM [cytotoxic, single point].

Which Potency does the source give for `COc1ccc(NC(=O)C(=O)Nc2cccc3cccnc23)cc1OC` here?
The Potency was inconclusive: 29.1 µM [rising, partial curve, poor fit].

With `CC(C)(C)c1ccc(CSc2nnc(-c3ccccn3)n2Cc2ccco2)cc1` as the compound, how does the activity change, negative = cytotoxic read?
The activity change, negative = cytotoxic was inconclusive: -45.1%.

With `Cc1cc2c(cc3c(SCC(=O)Nc4cccc(Cl)c4C)nnc(C)n32)o1` as the compound, how does the Potency read?
Its Potency is “inactive”.

For `O=C(CCCOC(=O)c1ccc(O)cc1)c1ccccc1`, which Potency is on record?
The Potency was inconclusive: 5.8 µM [cytotoxic, partial curve].

With `O=C1C(=Cc2ccccn2)CCc2ccccc21` as the compound, how does the Potency read?
Its Potency is inconclusive: 18.4 µM [cytotoxic, single point].

With `Cc1ccc(-c2nnc(SCC(=O)NCc3ccccc3)nc2-c2ccc(C)cc2)cc1` as the compound, how does the Potency read?
Its Potency is inconclusive: 29.1 µM [cytotoxic, single point].

For `O=C(Nc1ccc2c(c1)CCC2)c1cccc(S(=O)(=O)Nc2ccccc2Cl)c1`, which Potency is on record?
Its Potency is inconclusive: 18.4 µM [cytotoxic, single point].

Which Potency does the source give for `CC(=O)Nc1ccc(NC(=O)c2ccccc2N(Cc2ccccc2)S(C)(=O)=O)cc1` here?
Its Potency is “inactive”.

With `COc1ccc(-n2cnc3cc(C(=O)NCC4CCCO4)ccc32)cc1` (centres undefined) as the compound, how does the Potency read?
Its Potency is inconclusive: 29.1 µM [cytotoxic, single point].

With `COc1ccc(/C=C/C(=O)Nc2ccc(Cl)c(Cl)c2)cc1` as the compound, how does the Potency read?
Its Potency is inconclusive: 11.6 µM [cytotoxic, partial curve].

For `COc1cc(-c2cc(NC=O)c3ncc(-c4ccc(C(C)=O)cc4)n3c2)ccc1O`, which Potency is on record?
The Potency was inconclusive: 20.6 µM [cytotoxic, single point].
